For the assay, the target named is Siglec-8^ΔE2 (truncated human Siglec-8 lacking exon 2) (human). The assay is described as follows: flow cytometry on K562 cells expressing Siglec-8 ΔE2 (FIG. 9C). Background: Flow cytometry measures light scatter and fluorescence of single cells or particles in a stream.

Results are given in words; binding and its absence hold for the method and conditions named. Binding calls can cover weak binding; strength is not graded here.

B1: S8-ATX1E1 (antibody, V domains shown)
VH: EVQLVESGGGLVQPGRSLRLSCAASGFMFDDYVMHWVRQAPGKGLEWVSGINWNSDNIGYADSVKGRFTISRDNAKNSLFLQMNSLRVEDTALYYCAKDIDAAAFDYWGQGTLVTVSS
VL: DIVMTQSPLSLPVTPGEPASISCRSSQSLLHSNGYSYLAWYLQKPGQSPQLLIYLVSNRASGVPDRFTGSGSGTDFTLKISRVEAEDVGVYYCMQALQTPWTFGQGTKVEIK
As to B1, the binding result was “binds”.

B2: S8-ATX1E4 (antibody, V domains shown)
VH: QVQLVQSGSELKKPGASVKVSCKTSGYTFTSYAMNWVRQAPGQGLEWMGWINTNTGNPTYAQGFRGRFVFSLDTSVSTAYLQISSLKAEDTAVYYCARDKYSSSWYWFDSWGQGTLVTVSS
VL: DIQMTQSPSSLSASVGDRVTITCRPSQNISSYLNWYQQKPGKAPKLLIYAASSLRSGVPSRFSGSGSGTDFTLTVSSLQPEDFANYYCQQSYSTPYTFGRGTKLEIK
For B2, the binding entry is reported as “binds”.

The values above are taken from patent publication US20250034245A1.
